Measurements reported in US7674464B2, “Intracellular interleukin-1 receptor antagonists” (The University of Tennessee Research Foundation, priority 2004, dated 2010).

System: dermal fibroblasts
Assay: uptake and subcellular localisation of 125I-labeled peptide in dermal fibroblasts
Type: cell-based

Q: Which “uptake by fibroblasts and localisation” value does the source give for “RPSGRKSSKMQAFRIWDVNQKTFYLRNNQLVAGYL (IL-1ra peptides representing the mature form of human sIL-1ra) [IL-1ra 1-35, synthetic peptide, residues 1-35 of mature human sIL-1ra]” here?
A: taken up by fibroblasts, and localized to the vesicles, cytosol and nucleus

Q: What about the “uptake of the labeled peptide by fibroblasts” value (40 μg 125I peptide, 3 hours at 37° C., fibroblast monolayer) of the same sequence?
A: 1.5%

Q: And the “share of recovered cellular CPM localized in the cytosol” value (total CPM 15,032)?
A: 34.8%

Q: And the “share of recovered cellular CPM localized in the nucleus” value (total CPM 15,032)?
A: 12%

Q: And the “share of recovered cellular CPM localized in the plasma membrane” value (total CPM 15,032)?
A: 21.2%

Q: And the “share of recovered cellular CPM localized in vesicles” value (total CPM 15,032)?
A: 31.9%
